Results reported in the supplement of paper PMC4604168 (melanoma cell lines).
This is one part of the list. Repeats are few or missing, and single values can be far off.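 Cells were imaged in 1,536-well plates, and nuclei stained with an antibody against cleaved PARP were counted against all DNA-stained nuclei to give the apoptosis fraction. Screening doses were chosen to leave most cells alive, and resting and induced cleaved-PARP levels differ strongly between cell lines.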

What was measured:
Experiment in all cases: cleaved PARP positive nuclei fraction relative to DMSO control; melanoma cells; higher = more apoptosis
Conditions in all cases: library dose: low library concentration; 72 h
501Mel = tested on: 501Mel
A101D = tested on: A101D
A2058 = tested on: A2058
A375 = tested on: A375
C32 = tested on: C32
CBRC008 = tested on: CBRC008 (line from a melanoma biopsy)
CBRC013 = tested on: CBRC013 (line from a melanoma biopsy)
CBRC014 = tested on: CBRC014 (line from a melanoma biopsy)
CBRC016 = tested on: CBRC016 (line from a melanoma biopsy)
CBRC017 = tested on: CBRC017 (line from a melanoma biopsy)
COLO792 = tested on: COLO792
COLO800 = tested on: COLO800
COLO829 = tested on: COLO829
G361 = tested on: G361
IPC-298 = tested on: IPC-298
IST-MEL1 = tested on: IST-MEL1
LB2518-MEL = tested on: LB2518-MEL
LOXIMVI = tested on: LOXIMVI
MEL-HO = tested on: MEL-HO

SMILES	cleaved PARP positive nuclei fraction (501Mel) [%]	cleaved PARP positive nuclei fraction (A101D) [%]	cleaved PARP positive nuclei fraction (A2058) [%]	cleaved PARP positive nuclei fraction (A375) [%]	cleaved PARP positive nuclei fraction (C32) [%]	cleaved PARP positive nuclei fraction (CBRC008) [%]	cleaved PARP positive nuclei fraction (CBRC013) [%]	cleaved PARP positive nuclei fraction (CBRC014) [%]	cleaved PARP positive nuclei fraction (CBRC016) [%]	cleaved PARP positive nuclei fraction (CBRC017) [%]	cleaved PARP positive nuclei fraction (COLO792) [%]	cleaved PARP positive nuclei fraction (COLO800) [%]	cleaved PARP positive nuclei fraction (COLO829) [%]	cleaved PARP positive nuclei fraction (G361) [%]	cleaved PARP positive nuclei fraction (IPC-298) [%]	cleaved PARP positive nuclei fraction (IST-MEL1) [%]	cleaved PARP positive nuclei fraction (LB2518-MEL) [%]	cleaved PARP positive nuclei fraction (LOXIMVI) [%]	cleaved PARP positive nuclei fraction (MEL-HO) [%]
Nc1cccc2c1CN(C1CCC(=O)NC1=O)C2=O (stereo unspecified) [lenalidomide] + CN(C)S(=O)(=O)c1ccc2c(c1)/C(=C/c1cc3c([nH]1)CCCC3)C(=O)N2 [SU6656] (first compound 1 µM, partner dose 0.4 µM)	43	55.7	66.5	49.3	301	75.5	121	88.9	278	107	99.4	97.5	136	125	189	98.1	99.8	67	196
CC(=O)c1c(C)c2cnc(Nc3ccc(N4CCNCC4)cn3)nc2n(C2CCCC2)c1=O [palbociclib] + O=C(Nc1cccc(Cl)c1)Nc1ncc(CCNc2ncnc3ccsc23)s1 [SNS314] (first compound 0.04 µM, partner dose 0.0008 µM)	247	99.2	43.1	201	95.5	91.3	91.9	100	105	84.6	88.4	79.2	44.1	76.8	55.4	24.9	58.9	123	74.6
CC(=O)c1c(C)c2cnc(Nc3ccc(N4CCNCC4)cn3)nc2n(C2CCCC2)c1=O [palbociclib] + C=CCn1c(=O)c2cnc(Nc3ccc(N4CCN(C)CC4)cc3)nc2n1-c1cccc(C(C)(C)O)n1 [MK1775] (first compound 0.04 µM, partner dose 0.02 µM)	96	113	44	357	153	78.4	61.9	111	163	76.8	94.9	104	109	109	47.4	113	128	119	42
OCc1c[nH]c2ccccc12 [Indole-3-carbinol] + CN(C)S(=O)(=O)c1ccc2c(c1)/C(=C/c1cc3c([nH]1)CCCC3)C(=O)N2 [SU6656] (first compound 0.8 µM, partner dose 0.4 µM)	84.2	47.3	30.4	265	102	127	159	111	163	108	33.7	61.7	51.2	52.9	175	106	126	55.9	448
Cn1nnc2c(C(N)=O)ncn2c1=O [temozolomide] + COc1cc2c(Oc3ccc4[nH]c(C)cc4c3F)ncnc2cc1OCCCN1CCCC1 [cediranib] (first compound 2 µM, partner dose 0.4 µM)	105	101	181	102	89.7	177	97.2	143	74.4	72.2	86.6	82	75.5	105	105	309	177	42.3	76.6
O=C(CCCCCCC(=O)Nc1ccccc1)NO [vorinostat] + CN(NC(=O)CC(=O)NN(C)C(=S)c1ccccc1)C(=S)c1ccccc1 [STA4783] (first compound 0.08 µM, partner dose 0.006 µM)	435	50.8	290	6580	121	785	129	445	466	162	256	221	190	212	88.6	114	298	49.1	69.4
O=C(CCCCCCC(=O)Nc1ccccc1)NO [vorinostat] + COc1cc(Nc2ncc(F)c(Nc3ccc4c(n3)NC(=O)C(C)(C)O4)n2)cc(OC)c1OC [Tamatinib] (first compound 0.08 µM, partner dose 0.4 µM)	90.5	195	222	80.9	100	60.9	71.1	80.4	121	94	157	130	103	121	103	96.8	102	30.2	135
COCC[n+]1c2c(n(Cc3cnccn3)c1C)C(=O)c1ccccc1C2=O + CC1(C)NC(=O)N(c2ccc([N+](=O)[O-])c(C(F)(F)F)c2)C1=O [nilutamide] (first compound 0.0004 µM, partner dose 1 µM)	263	94.8	137	62.5	105	1730	97.2	70.9	78.4	84.5	107	65.7	116	112	139	64.6	101	114	162
Cc1nc(Nc2ncc(C(=O)Nc3c(C)cccc3Cl)s2)cc(N2CCN(CCO)CC2)n1 [dasatanib] + OCCn1cc(-c2cnc3nnn(Cc4ccc5ncccc5c4)c3n2)cn1 [PF04217903] (first compound 0.004 µM, partner dose 1 µM)	90.3	79.3	106	108	233	26.3	83.4	85.8	29.4	90.3	150	80.1	103	49.9	106	60.9	32.9	269	116
